# Test results as given in PMC8577994 (Cell Reports, 2021).
# System: SARS-CoV-2
# Assay: microbe, parasite or virus in culture
# Details: Severe acute respiratory syndrome coronavirus 2, A549-ACE2, read-out: EC50, SARS-CoV-2
smiles,measurement,value
CCC(CC)COC(=O)[C@H](C)N[P@](=O)(OC[C@H]1O[C@@](C#N)(c2ccc3c(N)ncnn23)[C@H](O)[C@@H]1O)Oc1ccccc1 [Remdesivir],EC50,79.2 nM
